Drawing on PMC4942636, this text covers binding for 7 molecules.

First the molecules themselves.
B1: Thioredoxin-like protein 1 (protein, UniProt O43396 1-289)
chain: MVGVKPVGSDPDFQPELSGAGSRLAVVKFTMRGCGPCLRIAPAFSSMSNKYPQAVFLEVDVHQCQGTAATNNISATPTFLFFRNKVRIDQYQGADAVGLEEKIKQHLENDPGSNEDTDIPKGYMDLMPFINKAGCECLNESDEHGFDNCLRKDTTFLESDCDEQLLITVAFNQPVKLYSMKFQGPDNGQGPKYVKIFINLPRSMDFEEAERSEPTQALELTEDDIKEDGIVPLRYVKFQNVNSVTIFVQSNQGEEETTRISYFTFIGTPVQATNMNDFKRVVGKKGESH
B2: Activity-dependent neuroprotector homeobox protein (protein, UniProt Q9H2P0 1-1102)
chain: MFQLPVNNLGSLRKARKTVKKILSDIGLEYCKEHIEDFKQFEPNDFYLKNTTWEDVGLWDPSLTKNQDYRTKPFCCSACPFSSKFFSAYKSHFRNVHSEDFENRILLNCPYCTFNADKKTLETHIKIFHAPNASAPSSSLSTFKDKNKNDGLKPKQADSVEQAVYYCKKCTYRDPLYEIVRKHIYREHFQHVAAPYIAKAGEKSLNGAVPLGSNAREESSIHCKRCLFMPKSYEALVQHVIEDHERIGYQVTAMIGHTNVVVPRSKPLMLIAPKPQDKKSMGLPPRIGSLASGNVRSLPSQQMVNRLSIPKPNLNSTGVNMMSSVHLQQNNYGVKSVGQGYSVGQSMRLGLGGNAPVSIPQQSQSVKQLLPSGNGRSYGLGSEQRSQAPARYSLQSANASSLSSGQLKSPSLSQSQASRVLGQSSSKPAAAATGPPPGNTSSTQKWKICTICNELFPENVYSVHFEKEHKAEKVPAVANYIMKIHNFTSKCLYCNRYLPTDTLLNHMLIHGLSCPYCRSTFNDVEKMAAHMRMVHIDEEMGPKTDSTLSFDLTLQQGSHTNIHLLVTTYNLRDAPAESVAYHAQNNPPVPPKPQPKVQEKADIPVKSSPQAAVPYKKDVGKTLCPLCFSILKGPISDALAHHLRERHQVIQTVHPVEKKLTYKCIHCLGVYTSNMTASTITLHLVHCRGVGKTQNGQDKTNAPSRLNQSPSLAPVKRTYEQMEFPLLKKRKLDDDSDSPSFFEEKPEEPVVLALDPKGHEDDSYEARKSFLTKYFNKQPYPTRREIEKLAASLWLWKSDIASHFSNKRKKCVRDCEKYKPGVLLGFNMKELNKVKHEMDFDAEWLFENHDEKDSRVNASKTADKKLNLGKEDDSSSDSFENLEEESNESGSPFDPVFEVEPKISNDNPEEHVLKVIPEDASESEEKLDQKEDGSKYETIHLTEEPTKLMHNASDSEVDQDDVVEWKDGASPSESGPGSQQVSDFEDNTCEMKPGTWSDESSQSEDARSSKPAAKKKATMQGDREQLKWKNSSYGKVEGFWSKDQSQWKNASENDERLSNPQIEWQNSTIDSEDGEQFDNMTDGVAEPMHGSLAGVKLSSQQA
B3: TOX high mobility group box family member 4 (protein, UniProt O94842 1-621)
chain: MEFPGGNDNYLTITGPSHPFLSGAETFHTPSLGDEEFEIPPISLDSDPSLAVSDVVGHFDDLADPSSSQDGSFSAQYGVQTLDMPVGMTHGLMEQGGGLLSGGLTMDLDHSIGTQYSANPPVTIDVPMTDMTSGLMGHSQLTTIDQSELSSQLGLSLGGGTILPPAQSPEDRLSTTPSPTSSLHEDGVEDFRRQLPSQKTVVVEAGKKQKAPKKRKKKDPNEPQKPVSAYALFFRDTQAAIKGQNPNATFGEVSKIVASMWDSLGEEQKQVYKRKTEAAKKEYLKALAAYKDNQECQATVETVELDPAPPSQTPSPPPMATVDPASPAPASIEPPALSPSIVVNSTLSSYVANQASSGAGGQPNITKLIITKQMLPSSITMSQGGMVTVIPATVVTSRGLQLGQTSTATIQPSQQAQIVTRSVLQAAAAAAAAASMQLPPPRLQPPPLQQMPQPPTQQQVTILQQPPPLQAMQQPPPQKVRINLQQQPPPLQIKSVPLPTLKMQTTLVPPTVESSPERPMNNSPEAHTVEAPSPETICEMITDVVPEVESPSQMDVELVSGSPVALSPQPRCVRSGCENPPIVSKDWDNEYCSNECVVKHCRDVFLAWVASRNSNTVVFVK
B4: E2 ubiquitin-conjugating enzyme (protein, UniProt Q9C0C9 1-1292)
chain: MADPAAPTPAAPAPAQAPAPAPEAVPAPAAAPVPAPAPASDSASGPSSDSGPEAGSQRLLFSHDLVSGRYRGSVHFGLVRLIHGEDSDSEGEEEGRGSSGCSEAGGAGHEEGRASPLRRGYVRVQWYPEGVKQHVKETKLKLEDRSVVPRDVVRHMRSTDSQCGTVIDVNIDCAVKLIGTNCIIYPVNSKDLQHIWPFMYGDYIAYDCWLGKVYDLKNQIILKLSNGARCSMNTEDGAKLYDVCPHVSDSGLFFDDSYGFYPGQVLIGPAKIFSSVQWLSGVKPVLSTKSKFRVVVEEVQVVELKVTWITKSFCPGGTDSVSPPPSVITQENLGRVKRLGCFDHAQRQLGERCLYVFPAKVEPAKIAWECPEKNCAQGEGSMAKKVKRLLKKQVVRIMSCSPDTQCSRDHSMEDPDKKGESKTKSEAESASPEETPDGSASPVEMQDEGAEEPHEAGEQLPPFLLKEGRDDRLHSAEQDADDEAADDTDDTSSVTSSASSTTSSQSGSGTSRKKSIPLSIKNLKRKHKRKKNKITRDFKPGDRVAVEVVTTMTSADVMWQDGSVECNIRSNDLFPVHHLDNNEFCPGDFVVDKRVQSCPDPAVYGVVQSGDHIGRTCMVKWFKLRPSGDDVELIGEEEDVSVYDIADHPDFRFRTTDIVIRIGNTEDGAPHKEDEPSVGQVARVDVSSKVEVVWADNSKTIILPQHLYNIESEIEESDYDSVEGSTSGASSDEWEDDSDSWETDNGLVEDEHPKIEEPPIPPLEQPVAPEDKGVVISEEAATAAVQGAVAMAAPMAGLMEKAGKDGPPKSFRELKEAIKILESLKNMTVEQLLTGSPTSPTVEPEKPTREKKFLDDIKKLQENLKKTLDNVAIVEEEKMEAVPDVERKEDKPEGQSPVKAEWPSETPVLCQQCGGKPGVTFTSAKGEVFSVLEFAPSNHSFKKIEFQPPEAKKFFSTVRKEMALLATSLPEGIMVKTFEDRMDLFSALIKGPTRTPYEDGLYLFDIQLPNIYPAVPPHFCYLSQCSGRLNPNLYDNGKVCVSLLGTWIGKGTERWTSKSSLLQVLISIQGLILVNEPYYNEAGFDSDRGLQEGYENSRCYNEMALIRVVQSMTQLVRRPPEVFEQEIRQHFSTGGWRLVNRIESWLETHALLEKAQALPNGVPKASSSPEPPAVAELSDSGQQEPEDGGPAPGEASQGSDSEGGAQGLASASRDHTDQTSETAPDASVPPSVKPKKRRKSYRSFLPEKSGYPDIGFPLFPLSKGFIKSIRGVLTQFRAALLEAGMPECTEDK
B5: Nucleolar protein 58 (protein, UniProt Q9Y2X3 1-529)
chain: MLVLFETSVGYAIFKVLNEKKLQEVDSLWKEFETPEKANKIVKLKHFEKFQDTAEALAAFTALMEGKINKQLKKVLKKIVKEAHEPLAVADAKLGGVIKEKLNLSCIHSPVVNELMRGIRSQMDGLIPGVEPREMAAMCLGLAHSLSRYRLKFSADKVDTMIVQAISLLDDLDKELNNYIMRCREWYGWHFPELGKIISDNLTYCKCLQKVGDRKNYASAKLSELLPEEVEAEVKAAAEISMGTEVSEEDICNILHLCTQVIEISEYRTQLYEYLQNRMMAIAPNVTVMVGELVGARLIAHAGSLLNLAKHAASTVQILGAEKALFRALKSRRDTPKYGLIYHASLVGQTSPKHKGKISRMLAAKTVLAIRYDAFGEDSSSAMGVENRAKLEARLRTLEDRGIRKISGTGKALAKTEKYEHKSEVKTYDPSGDSTLPTCSKKRKIEQVDKEDEITEKKAKKAKIKVKVEEEEEEKVAEEEETSVKKKKKRGKKKHIKEEPLSEEEPCTSTAIASPEKKKKKKKKRENED
B6: U4/U6.U5 tri-snRNP-associated protein 1 (protein, UniProt O43290 1-800)
chain: MGSSKKHRGEKEAAGTTAAAGTGGATEQPPRHREHKKHKHRSGGSGGSGGERRKRSRERGGERGSGRRGAEAEARSSTHGRERSQAEPSERRVKREKRDDGYEAAASSKTSSGDASSLSIEETNKLRAKLGLKPLEVNAIKKEAGTKEEPVTADVINPMALRQREELREKLAAAKEKRLLNQKLGKIKTLGEDDPWLDDTAAWIERSRQLQKEKDLAEKRAKLLEEMDQEFGVSTLVEEEFGQRRQDLYSARDLQGLTVEHAIDSFREGETMILTLKDKGVLQEEEDVLVNVNLVDKERAEKNVELRKKKPDYLPYAEDESVDDLAQQKPRSILSKYDEELEGERPHSFRLEQGGTADGLRERELEEIRAKLRLQAQSLSTVGPRLASEYLTPEEMVTFKKTKRRVKKIRKKEKEVVVRADDLLPLGDQTQDGDFGSRLRGRGRRRVSEVEEEKEPVPQPLPSDDTRVENMDISDEEEGGAPPPGSPQVLEEDEAELELQKQLEKGRRLRQLQQLQQLRDSGEKVVEIVKKLESRQRGWEEDEDPERKGAIVFNATSEFCRTLGEIPTYGLAGNREEQEELMDFERDEERSANGGSESDGEENIGWSTVNLDEEKQQQDFSASSTTILDEEPIVNRGLAAALLLCQNKGLLETTVQKVARVKAPNKSLPSAVYCIEDKMAIDDKYSRREEYRGFTQDFKEKDGYKPDVKIEYVDETGRKLTPKEAFRQLSHRFHGKGSGKMKTERRMKKLDEEALLKKMSSSDTPLGTVALLQEKQKAQKTPYIVLSGSGKSMNANTITK
B7: Heat shock 70 kDa protein 13 (protein, UniProt P48723 23-471)
chain: QQYLPLPTPKVIGIDLGTTYCSVGVFFPGTGKVKVIPDENGHISIPSMVSFTDNDVYVGYESVELADSNPQNTIYDAKRFIGKIFTAEELEAEIGRYPFKVLNKNGMVEFSVTSNETITVSPEYVGSRLLLKLKEMAEAYLGMPVANAVISVPAEFDLKQRNSTIEAANLAGLKILRVINEPTAAAMAYGLHKADVFHVLVIDLGGGTLDVSLLNKQGGMFLTRAMSGNNKLGGQDFNQRLLQYLYKQIYQTYGFVPSRKEEIHRLRQAVEMVKLNLTLHQSAQLSVLLTVEEQDRKEPHSSDTELPKDKLSSADDHRVNSGFGRGLSDKKSGESQVLFETEISRKLFDTLNEDLFQKILVPIQQVLKEGHLEKTEIDEVVLVGGSTRIPRIRQVIQEFFGKDPNTSVDPDLAVVTGVAIQAGIDGGSWPLQVSALEIPNKHLQKTNFN

No constants are given. Whether binding was seen depends on the method and setting. In cells and extracts the contact can be indirect. Here binding means that the protein was enriched with, or labelled near, the bait; the list need not be complete. For some assays here: No binding means not detected with the bait. For some assays here: Sequences can lack the tags named with a protein.

For the first assay, the target named is Myc-BirA*-Txnip (human) (UniProt Q9H3M7). Briefly: proximity labelling; BioID: Myc-BirA*-Txnip or its C247S mutant stably expressed in HEK293, DMEM with 25 mM glucose and 50 uM biotin for 24 hrs; stringent lysis (0.4% SDS, 500 mM NaCl), biotinylated proteins captured on streptavidin Dynabeads, on-bead trypsin digestion, 1D LC-MS/MS; hits in at least 2 of 3 trials, parental HEK293 as control; also the high glucose arm of cells acclimated to low glucose.
On to B1, for which the binding result is on record as “binds”.

In the case of B2, the binding result was “binds”.

For the molecule B3, the binding entry was “binds”.

With B4, the binding result is given as “binds”.

Regarding B5, the binding result is “binds”.

In the case of B6, the binding result was “binds”.

As for B7, the binding result was “binds”.

The target in another assay is T1, Myc-BirA*-Txnip C247S (human) (UniProt Q9H3M7).
T1 sequence: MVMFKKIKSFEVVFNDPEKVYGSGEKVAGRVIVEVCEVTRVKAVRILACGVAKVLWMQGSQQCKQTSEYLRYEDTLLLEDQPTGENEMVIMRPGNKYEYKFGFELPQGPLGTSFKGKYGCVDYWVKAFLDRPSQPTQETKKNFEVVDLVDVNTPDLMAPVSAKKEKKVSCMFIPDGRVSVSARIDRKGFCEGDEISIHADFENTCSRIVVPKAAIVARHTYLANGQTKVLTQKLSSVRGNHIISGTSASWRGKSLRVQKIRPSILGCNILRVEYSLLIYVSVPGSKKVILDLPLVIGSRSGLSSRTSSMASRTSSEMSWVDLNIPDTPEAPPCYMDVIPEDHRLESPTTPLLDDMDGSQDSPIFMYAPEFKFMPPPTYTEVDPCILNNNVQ
Described as above.
With B7, the binding result was “no binding”.
